## Screening data

The results are deposited in PubChem (AID1224904; Broad Institute, 2016).

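Selective DUX4 reporter inhibition in doxycycline-induced 293T-iDUX4 cells, scored as Gaussia percent activity minus Italica percent activity, after a 24-hour treatment. The test concentration is not given here. Percent difference between the Gaussia and Italica channels; more negative values mean more selective suppression of the DUX4 reporter, and higher values mean less activity.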

Values are in %. The controls that fix the scale are not given here. Common to all entries: measured here: selective DUX4 reporter inhibition. Part of the compounds only, not a random draw; the main read-out is not listed here. An entry listed twice with the same setting is a separate test.

{"compound": "CN1C(=O)c2cc(NC(=O)c3cscn3)ccc2OC[C@H]2O[C@H](CC(=O)NCc3ccc(Cl)c(Cl)c3)CC[C@H]21", "Gaussia minus Italica difference (%)": "3.308"}
{"compound": "COc1ccccc1-c1ccc2c(c1)[C@H]1[C@H](CCN1C(=O)C1CCC1)[C@@H](CO)N2", "Gaussia minus Italica difference (%)": "15.45"}
{"compound": "COc1ccccc1S(=O)(=O)N1CC[C@@H]2[C@H](CO)Nc3ccc(-c4ccc(C#N)cc4)cc3[C@@H]21", "Gaussia minus Italica difference (%)": "-0.6679"}
{"compound": "COc1cc(CN2C[C@@H]3N[C@H](C2)C3c2ccc(-c3ccc(C#N)cc3)cc2)cc(OC)c1", "stereo": "some centres unmarked", "Gaussia minus Italica difference (%)": "-0.9322"}
{"compound": "O=S(=O)(Cc1ccccc1)N1C[C@@H]2N[C@H](C1)C2c1ccc(-c2ccccc2)cc1", "stereo": "some centres unmarked", "Gaussia minus Italica difference (%)": "-17.38"}
{"compound": "COc1cc(CN2C[C@@H]3N[C@H](C2)C3c2ccc(-c3ccc(C#N)cc3)cc2)cc(OC)c1", "stereo": "some centres unmarked", "Gaussia minus Italica difference (%)": "-4.148"}
{"compound": "COc1ccc(-c2ccc3c(c2)[C@@H]2[C@@H](CCN2C(=O)NC2CCCCC2)[C@@H](CO)N3C)cc1", "Gaussia minus Italica difference (%)": "17.45"}
{"compound": "CCCNC(=O)N1CC2(CCN(C(=O)C3CCCCC3)CC2)c2c([nH]c3cc(OC)ccc23)[C@H]1CO", "Gaussia minus Italica difference (%)": "-3.558"}
{"compound": "N#Cc1cccc(-c2ccc3c(c2)[C@H]2[C@H](CCN2C(=O)C2CCCCC2)[C@@H](CO)N3)c1", "Gaussia minus Italica difference (%)": "5.343"}
{"compound": "O=C(Nc1nccs1)[C@H]1[C@H](CO)[C@H]2Cn3c(ccc(-c4ccccc4)c3=O)[C@H]2N1CC1CCCC1", "Gaussia minus Italica difference (%)": "-9.949"}
{"compound": "CCCC#Cc1ccc([C@@H]2[C@H](CO)N3C(=O)CN(C(=O)Nc4cccc(F)c4)C[C@@H]23)cc1", "Gaussia minus Italica difference (%)": "-17.23"}
{"compound": "COc1ccc(-c2ccc3c(c2)[C@@H]2[C@@H](CCN2C(=O)c2ccc(F)cc2)[C@@H](CO)N3C)cc1", "Gaussia minus Italica difference (%)": "16.59"}
{"compound": "CC(C)NC(=O)NCC[C@H]1CC[C@@H](NS(=O)(=O)c2ccc(Oc3ccccc3)cc2)[C@@H](CO)O1", "Gaussia minus Italica difference (%)": "-12.65"}
{"compound": "O=C(c1cccnc1)N1CC(=O)N2[C@H](CO)[C@@H](c3ccc(C#CCC4CCCC4)cc3)[C@@H]2C1", "Gaussia minus Italica difference (%)": "-6.398"}
{"compound": "O=C(c1cnccn1)N1CC(=O)N2[C@H](C1)[C@@H](c1ccc(C#CCc3ccccc3)cc1)[C@@H]2CO", "Gaussia minus Italica difference (%)": "-17.57"}
{"compound": "O=C(Cc1ccccn1)N[C@@H]1CC[C@H](CCNS(=O)(=O)c2cccc(F)c2)O[C@@H]1CO", "Gaussia minus Italica difference (%)": "-5.197"}
{"compound": "O=C(C1CCC1)N1CC2(C1)[C@@H](c1ccccc1)[C@@H](CO)N2Cc1ccccc1F", "Gaussia minus Italica difference (%)": "-2.213"}
{"compound": "Cc1cccc(S(=O)(=O)N2CCCCN3[C@@H](CO)[C@@H](c4ccc(C#C[C@H](C)O)cc4)[C@@H]3C2)c1", "Gaussia minus Italica difference (%)": "17.02"}
{"compound": "N#C[C@H]1[C@@H](c2ccccc2-c2ccc(F)cc2)[C@@H](CO)N1C(=O)NC1CCCCC1", "Gaussia minus Italica difference (%)": "-3.542"}
{"compound": "CN1c2ccc(-c3ccc(F)cc3)cc2[C@H]2[C@H](CCN2S(=O)(=O)c2ccc(F)cc2)[C@H]1CO", "Gaussia minus Italica difference (%)": "22.62"}
{"compound": "COc1ccc(C#Cc2ccc3c(c2)[C@H]2[C@H](CCN2C(=O)c2ccncc2)[C@H](CO)N3)cc1", "Gaussia minus Italica difference (%)": "-5.148"}
{"compound": "COc1ccc2c3c([nH]c2c1)[C@H](CO)N(Cc1ccc(Cl)cc1)CC31CCN(Cc2ccccc2)CC1", "Gaussia minus Italica difference (%)": "15.61"}
{"compound": "COc1ccc(C#Cc2ccc([C@@H]3[C@H]4CN(C(=O)Cc5ccccc5)CCCCN4[C@H]3CO)cc2)cc1", "Gaussia minus Italica difference (%)": "-14.65"}
{"compound": "Cn1cnc(S(=O)(=O)N2CCCCN3[C@H](CO)[C@H](c4ccc(C#CC5CCCC5)cc4)[C@H]3C2)c1", "Gaussia minus Italica difference (%)": "-5.512"}
{"compound": "COc1ccccc1NC(=O)N[C@H]1CC[C@@H](CC(=O)N2CCC(Cc3ccccc3)CC2)O[C@@H]1CO", "Gaussia minus Italica difference (%)": "-3.503"}
{"compound": "O=C(C[C@@H]1CC[C@H]2[C@@H](COC[C@H](O)CN2Cc2ccc(C(F)(F)F)cc2)O1)NCCc1ccccc1", "Gaussia minus Italica difference (%)": "3.438"}
{"compound": "O=S(=O)(c1ccccc1F)N1[C@@H]2CNC[C@H]1C2c1ccc(/C=C/c2ccccc2)cc1", "stereo": "some centres unmarked", "Gaussia minus Italica difference (%)": "-15.38"}
{"compound": "C[C@H]1CN([C@@H](C)CO)C(=O)c2c(c3ccccc3n2C)-c2ccccc2CO[C@@H]1CN(C)Cc1ccc(O)cc1", "Gaussia minus Italica difference (%)": "-21.2"}
{"compound": "CO[C@H]1CN(C)C(=O)c2cc(NC(=O)c3ccc4c(c3)OCO4)ccc2OC[C@@H](C)N(CCC(F)(F)F)C[C@H]1C", "Gaussia minus Italica difference (%)": "-15"}
{"compound": "O=C(C[C@H]1CC[C@@H]2[C@H](COC[C@H](O)CN2S(=O)(=O)c2ccccc2)O1)NCc1ccc(-c2ccccc2)cc1", "Gaussia minus Italica difference (%)": "-7.913"}
{"compound": "O=C(Cc1ccncc1)Nc1ccc2c(c1)[C@H]1C[C@H](CC(=O)N3CCc4ccccc4C3)O[C@H](CO)[C@H]1O2", "Gaussia minus Italica difference (%)": "-22.41"}
{"compound": "O=C(c1cccc(F)c1)N1CC(=O)N2[C@H](C1)[C@H](c1ccc(/C=C/c3ccccc3)cc1)[C@@H]2CO", "Gaussia minus Italica difference (%)": "0.531"}
{"compound": "C[C@@H]1CN([C@@H](C)CO)C(=O)c2ccccc2-c2ccccc2CO[C@@H]1CN(C)Cc1ccc2c(c1)OCO2", "Gaussia minus Italica difference (%)": "-14.79"}
{"compound": "O=C(C[C@@H]1CC[C@@H]2[C@H](COC[C@H](O)CN2CC2CCCCC2)O1)NCc1ccc(Cl)cc1", "Gaussia minus Italica difference (%)": "3.703"}
{"compound": "COC(=O)[C@H]1[C@H](CO)[C@H]2Cn3c(ccc(-c4ccccc4)c3=O)[C@@H]1N2S(=O)(=O)c1ccccc1C", "Gaussia minus Italica difference (%)": "0.3105"}
{"compound": "COc1ccc2c3c([nH]c2c1)[C@@H](CO)N(Cc1ccccn1)CC31CN(C(=O)c2ccccn2)C1", "Gaussia minus Italica difference (%)": "-10.99"}

Once more, the final 3:

compound	Gaussia minus Italica difference (%)
O=C(C[C@@H]1CC[C@@H]2[C@H](COC[C@H](O)CN2CC2CCCCC2)O1)NCc1ccc(Cl)cc1	3.703
COC(=O)[C@H]1[C@H](CO)[C@H]2Cn3c(ccc(-c4ccccc4)c3=O)[C@@H]1N2S(=O)(=O)c1ccccc1C	0.3105
COc1ccc2c3c([nH]c2c1)[C@@H](CO)N(Cc1ccccn1)CC31CN(C(=O)c2ccccn2)C1	-10.99